Source: article PMC11284787, “Ligand-Directed Labeling of the Adenosine A1 Receptor in Living Cells” (Journal of Medicinal Chemistry, 2024)

Tested on: T1, SNAP-hA1AR
T1 construct: expressed in transfected cells; host or cells: HEK293T, transient transfection (FuGENE HD)
Experiment: Fluorescence correlation spectroscopy on SNAP-hA1AR HEK293T cell membranes
Format: cell-based, human
Conditions: 100 nM 90 min, apical membrane

## CCCCn1c(=O)c2[nH]c(C34CCC(C(=O)NCCNC(=O)CCNC(=O)c5ccc(OC(=O)CCCCC[N+]6=C(/C=C/C=C/C=C7/N(C)c8ccc(S(=O)(=O)O)cc8C7(C)C)C(C)(C)c7cc(S(=O)(=O)[O-])ccc76)c(F)c5)(CC3)CC4)nc2n(CCCC)c1=O [Compound 11, 1-(6-(4-((3-((2-(4-(1,3-Dibutyl-2,6-dioxo-2,3,6,7-tetrahydro-1H-purin-8-yl)bicyclo[2.2.2]octane-1-carboxamido)ethyl)amino)-3-oxopropyl)carbamoyl)-2-fluorophenoxy)-6-oxohexyl)-3,3-dimethyl-2-((1E,3E)-5-((E)-1,3,3-trimethyl-5-sulfoindolin-2-ylidene)penta-1,3-dien-1-yl)-3H-indol-1-ium-5-sulfonate]
  diffusion coefficient of SulfoCy5-A1AR: 0.29 ± 0.01 μm^2/s
  slower 2D component dwell time (SulfoCy5 bound A1AR): 55.4 ± 1.93 ms
